From US20050020810A1 (priority 2002, published 2005)

Test: general procedure: Fmoc solid-phase peptide synthesis; Rink Amide AM resin (Novabiochem); HBTU/HOBt/NMM
Details: for conjugation yield: conjugation step
[1] = whole synthesis, scale 0.100 mmol
[2] = whole synthesis, scale 0.111 mmol
[3] = whole synthesis, scale 0.101 mmol
[4] = whole synthesis, scale 0.0997 mmol
[5] = whole synthesis, scale 0.067 mmol

Acetyl-Pro-His-Ser-Cys-Asn-Gly-Gly-Lys(Protoporphyrin)-NH2
isolated yield (whole synthesis): 8.6%

Ac-Pro-His-Ser-Cys-Asn-NH—(CH2)6—CO-Lys(3-(4-hydroxyphenyl)propionyl)-NH2
isolated mass [1]: 29 mg | isolated yield [1]: 29%

4-Fluorobenzoyl-Pro-His-Ser-Cys-Asn-NH2
isolated yield (whole synthesis): 19%

2-Fluoroacetyl-β-Ala-Pro-His-Ser-Cys-Asn-NH2
isolated mass [2]: 30 mg | isolated yield [2]: 40%

Ac-Pro-His-Ser-Cys-Asn-β-Ala-Lys(3-(4-hydroxyphenyl)propionyl)-NH2
isolated mass [1]: 39 mg | isolated yield [1]: 41%

Ac-Pro-His-Ser-Cys-Asn-Gly-Gly-Lys(2-fluoroacetyl)-NH2
isolated mass [3]: 21 mg | isolated yield [3]: 23%

DTPA-PHSCN
isolated yield (whole synthesis, on resin-bound PHSCN (0.051 mmol)): 27.7%

Ac-Pro-His-Ser-Cys(Me)-Asn-Dox
conjugation yield: 39%

Ac-Pro-His-Ser-Cys(Ac)-Asn-Dox
conjugation yield: 54%

Ac-Pro-His-Ser-Cys(Me)-Asn-Gly-Gly-Lys(4-fluorobenzoyl)-NH2
step yield (late stage modification step): 71%

Ac-Pro-His-Ser-Cys-Asn-Gly-Gly-Lys(8-[(4′-fluorobenzyl)amino]suberoyl)-NH2
crude mass [4]: 42.3 mg | isolated mass [4]: 3.9 mg | isolated yield [4]: 11%

Ac-Pro-His-Ser-Cys-Asn-NH—(CH2)4—CO-Lys(3-(4-hydroxyphenyl)propionyl)-NH2
isolated mass [1]: 34 mg | isolated yield [1]: 35%

Ac-PHSCNGGGGK-NH2
isolated yield (whole synthesis): 70%

Ac-Pro-His-Ser-Cys-Asn-Gly-Gly-Lys(4-fluorobenzoyl)-NH2
isolated mass [5]: 28 mg | isolated yield [5]: 44%

m-dPEG-β-Ala-His-Ser-Cys-Asn-NH2
isolated yield (whole synthesis): 21%
